System: modified form of human P45017α
Assay: UV-VIS difference spectroscopy of complexes with modified human P45017α
Format: binding
Conditions: 20 μM compound; P450 concentration 1.8 μM

| SMILES | Peak position of the Soret maximum of the complex [nm] | Type of difference spectrum induced |
| --- | --- | --- |
| C[C@]12CC[C@H](O)CC1=CC[C@@H]1[C@@H]2CC[C@]2(C)C(n3cncn3)=CC[C@@H]12 [Compound 6, 3β-hydroxy-17-(1H, 1,2,4-triazol-1-yl)androsta-5,16-diene] | 422 | Type II difference spectrum |
| C[C@]12CC[C@H](O)CC1=CC[C@@H]1[C@@H]2CC[C@]2(C)C(n3ccnc3)=CC[C@@H]12 [Compound 11, 3β-hydroxy-17-(1H-imidazol-1-yl)androsta-5,16-diene] | 426 | Type II difference spectrum |

From patent US6444683B2, “17-azolyl steroids useful as androgen synthesis inhibitors” (University of Maryland at Baltimore, priority 1997, dated 2002)
